Measurements: PubChem BioAssay AID2551 (National Center for Advancing Translational Sciences (NCATS), 2010)
In all, about 310,000 compounds went through this assay and about 17,000 (5.5%) were called active. The shares of active, inactive and inconclusive entries below differ from those in the screen. The call rests on the fitted dose curve; in most records, active means well fitted inhibition curve with a large enough effect; inconclusive means small, poorly fitted or top-dose-only effect, or effect the other way; inactive means no such curve, though single readings can be large or run the other way. Potencies beside an inconclusive call are fits to weak or partial responses and may not hold up.
Further: nearly all actives have a fitted effect of over 60% in size.
On the % scale 0 is the no-effect control and ±100 the full control effect; potency means the concentration at half of the fitted maximal effect.

The chains behind the UniProt entries cited, without tags or fusion partners. Where a name states a change or a piece, a line headed by the entry shows the natural chain unless it says otherwise.
UniProt P51450: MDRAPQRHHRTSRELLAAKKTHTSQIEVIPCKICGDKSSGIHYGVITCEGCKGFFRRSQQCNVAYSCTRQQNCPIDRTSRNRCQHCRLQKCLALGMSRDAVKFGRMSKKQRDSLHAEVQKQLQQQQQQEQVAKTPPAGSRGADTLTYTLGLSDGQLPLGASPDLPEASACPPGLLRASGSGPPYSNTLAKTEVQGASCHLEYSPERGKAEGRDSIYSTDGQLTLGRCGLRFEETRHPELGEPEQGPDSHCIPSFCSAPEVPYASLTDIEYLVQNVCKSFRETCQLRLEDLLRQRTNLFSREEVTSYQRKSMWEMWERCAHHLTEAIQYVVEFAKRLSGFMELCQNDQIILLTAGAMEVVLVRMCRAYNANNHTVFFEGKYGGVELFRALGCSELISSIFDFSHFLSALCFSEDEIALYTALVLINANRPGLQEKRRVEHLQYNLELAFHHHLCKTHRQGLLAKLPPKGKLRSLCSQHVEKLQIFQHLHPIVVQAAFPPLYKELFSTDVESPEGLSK

These compounds were tested against Nuclear receptor ROR-gamma (Mus musculus) (UniProt P51450) (assay: qHTS for inhibitors of ROR gamma transcriptional activity). Settings: Drosophila S2 Gal4-RORgamma UAS-luciferase reporter, 20 h; activity change, negative = inhibition: at 53.6 µM (top of the series).
Outline: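 Compounds are pin-transferred onto Drosophila Schneider cells expressing a copper-inducible Gal4–ROR gamma transactivation domain fusion. After 1 hr, copper sulfate is added to 700 uM final; luciferase is read 20 hr later.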
With `Cc1cc(C)nc(SCCC(=O)N(C)C)n1` the Potency was “inactive”.
In the case of `CC(=O)NC(=S)Nc1ccccc1F`, the Potency is reported as inconclusive: 31.6 µM [inhibitor, single point].
With `COC(=O)C1=C(C)C(c2ccc(OC)cc2)NC(=S)N1` (stereo not given) the Potency was active: 10 µM.
With `N=C1C(c2nc(-c3ccc(Cl)cc3)cs2)=C(O)CN1CCCN1CCOCC1` the Potency was inconclusive: 35.5 µM [inhibitor, single point].
With `Cc1ccc(C(=O)NC(=S)Nc2ccc(S(=O)(=O)N3CCN(C)CC3)cc2)cc1` the Potency was active: 11.2 µM.
In the case of `Cc1cccc(N(C)c2cc(C)nc3nc(C)nn23)c1`, the Potency is reported as “inactive”.
For `Cc1c(C)n(Cc2ccccc2)c2ncnc(N)c12`, the Potency was inconclusive: 2.82 µM [inhibitor, single point].
For `O=C(Nc1ccc(F)cc1)c1nsc(Cl)c1Cl`, the Potency was inconclusive: 10 µM [inhibitor, partial curve, poor fit].
`CSc1ccccc1NC(=O)CN(C)Cc1ccc(Br)cc1` was tested, and the Potency was “inactive”.
With `CCN(CCO)C1CC(=O)N(c2ccccc2C)C1=O` (stereo not given) the Potency was active: 3.98 µM.
In the case of `COc1ccc(Nc2nc3ccccc3n3cnnc23)cc1`, the Potency is reported as “inactive”.
In the case of `CN1C(=S)N(c2cccnc2)C(=O)/C1=C\c1ccc(N(C)C)cc1`, the Potency is reported as “inactive”.
With `Cc1sc2ncn(CC(=O)N3CCOCC3)c(=O)c2c1-c1ccccc1` the Potency was “inactive”.
For `Cc1cc(OCC(=O)N2CCOCC2)c(C(C)C)cc1Cl`, the Potency was inconclusive: 11.2 µM [inhibitor, single point].
With `COc1cc(OC)c(C(=O)Nc2cccc3ccccc23)cc1OC` the Potency was inconclusive: 0.316 µM [activator, partial curve].
In the case of `Cc1occc1C(=O)N/N=C/c1ccc(N(C)C)cc1`, the Potency is reported as active: 10 µM.
With `COc1ccc(CCNC(=O)CCSc2nc(-c3ccco3)cc(C(F)(F)F)n2)cc1` the Potency was inconclusive: 6.31 µM [activator, single point].
`Cc1ccc(-c2cn(-c3ccccc3)c3[n+]2CCCS3)cc1` was tested, and the Potency was “inactive”.
In the case of `CC(=O)c1cccc(NC(=S)NC2CCCCC2)c1`, the Potency is reported as active: 10 µM.
In the case of `O=C(NCCc1c[nH]c2ccccc12)[C@H]1C[C@@H]1[C@H](NP(=O)(c1ccccc1)c1ccccc1)c1ccccc1`, the Potency is reported as inconclusive: 11.2 µM [activator, partial curve].
With `CCC1CCCCN1C(=O)COc1cccc2c1CCN(C)C2=O` (stereo not given) the Potency was inconclusive: 35.5 µM [activator, single point].
In the case of `N#CC1=C(N)SC(N)=C(C#N)C1C1C=CCCC1` (stereo not given), the Potency is reported as inconclusive: 14.1 µM [inhibitor, partial curve, poor fit].
`CCOc1ccc(NC(=O)C2CCCN(S(C)(=O)=O)C2)cc1` (stereo not given) was tested, and the Potency was “inactive”.
In the case of `CC(C)(C)OC(=O)NCCCC[C@H](NC(=O)c1[nH]cnc1C(=O)Nc1ccc(Cl)cc1)C(=O)OC(C)(C)C`, the Potency is reported as inconclusive: 8.91 µM [inhibitor, partial curve, poor fit].
In the case of `CCOc1ccc(NC(=S)Nc2cccnc2)cc1`, the Potency is reported as inconclusive: 11.2 µM [inhibitor, partial curve].
In the case of `O=C(Nc1ccncc1)c1c(Cl)cccc1Cl`, the Potency is reported as inconclusive: 10 µM [inhibitor, partial curve].
With `Cc1cccc(/C=N/NC(=O)CNc2cccc3ccccc23)n1` the Potency was active: 14.1 µM.
For `Cc1cc(Cl)c2oc(C(=O)N(C)C3CCOC3)c(C)c2c1` (stereo not given), the Potency was “inactive”.
In the case of `C/C(=N\NC(=O)c1cccnc1)c1cc2ccccc2o1`, the Potency is reported as “inactive”.
For `Cn1c(=O)c(/C=C/c2ccc(F)cc2)nc2ccccc21`, the Potency was “inactive”.
For `COc1c(F)c(F)c(C(=O)Nc2ccc(N3CCN(C(C)=O)CC3)c(Cl)c2)c(F)c1F`, the Potency was “inactive”.
For `Cc1cc(=O)oc2c(C)c(OC(C)C(=O)Nc3ccc(N4CCC(C)CC4)cc3)ccc12` (stereo not given), the Potency was “inactive”.
For `CC(Oc1ccccc1F)C(=O)NNC(=O)c1cc2ccccc2o1` (stereo not given), the Potency was “inactive”.
With `C#CC(=O)N(c1ccc(OC)cc1OC)C(C(=O)NC1CCCC1)c1cccs1` (stereo not given) the Potency was active: 6.31 µM.
With `O=C1/C(=C/c2ccc(F)cc2)CCC1C1CCCC1` (stereo not given) the Potency was “inactive”.
In the case of `O=C(Nc1ccc(Cl)cc1)N(Cc1cccs1)Cc1cccs1`, the Potency is reported as inconclusive: 35.5 µM [activator, single point].
For `CCC(=O)Nc1cccc(-c2ccc(N3CCCCC3)nn2)c1`, the Potency was active: 2.51 µM.
With `Cc1nn(-c2ccccc2)c(C)c1P(=O)(c1ccccc1)N(C)C` (stereo not given) the Potency was inconclusive: 5.62 µM [inhibitor, single point].
With `Cc1cc(C)cc(NC(=O)C2C3C=CC4(O3)C2C(=O)N(CCCN(C)C)C4C(=O)NC2CCCC(C)C2C)c1` (stereo not given) the Potency was inconclusive: 15.8 µM [inhibitor, single point].
For `CCn1nc(C)c(NC(=O)/C=C/c2ccc(OC)c(COc3ccc(Br)cc3)c2)c1C`, the Potency was inconclusive: 3.98 µM [activator, single point].
With `O=C1C(Cl)=C(Nc2ccc(O)cc2)C(=O)c2ccccc21` the Potency was inconclusive: 0.794 µM [inhibitor, partial curve, poor fit].
For `CCOc1cc2[nH]c(=S)n(C3CCN(Cc4ccccc4)CC3)c(=O)c2cc1OCC`, the Potency was inconclusive: 1.26 µM [inhibitor, full curve].
For `Nc1ccc(C(=O)N/N=C\c2cc(N=Nc3cccc4ccccc34)ccc2O)cc1`, the Potency was active: 1.58 µM.
For `Cc1ccc(N2CCN(c3ccc(C)cc3)C(CC(=O)O)C2=O)cc1` (stereo not given), the Potency was inconclusive: 17.8 µM [activator, single point].
In the case of `CC(=O)N1N=C(c2ccco2)CC1c1cccs1` (stereo not given), the Potency is reported as “inactive”.
`CCc1cccc(NC(=S)Nc2ccc(CN3CCOCC3)cc2)c1` was tested, and the Potency was active: 11.2 µM.
For `Cc1cc(-c2nn(-c3ccccc3F)cc2CN2CCCC(CO)C2)c(C)s1` (stereo not given), the Potency was “inactive”.
With `COC(=O)c1ccccc1NC(=O)NCc1ccccn1` the Potency was inconclusive: 35.5 µM [inhibitor, single point].
`COc1ccc2oc(/C=C/N(C)C)c(C(=O)c3ccc(Cl)cc3)c2c1` was tested, and the Potency was “inactive”.
In the case of `O=C(NCCc1ccc(Cl)cc1)C(=O)c1c[nH]c2ccccc12`, the Potency is reported as inconclusive: 3.16 µM [activator, single point].
For `COc1ccc(C(=O)NCC(O)CN2CCOCC2)cc1[N+](=O)[O-]` (stereo not given), the Potency was “inactive”.
In the case of `COc1cccc(C(=O)Nc2nnc(SCC(=O)NC3CCCC3)s2)c1`, the Potency is reported as inconclusive: 35.5 µM [inhibitor, single point].
With `Cc1cccc(-c2noc(-c3ccoc3C)n2)c1` the Potency was “inactive”.
With `Cc1cccn2cc(COc3ccc(-c4ccccc4)cc3)nc12` the Potency was active: 12.6 µM.
For `O=C(c1cnccn1)N1CCC2(CC1)CCN(c1cccc(-c3ccccc3)c1)CC2`, the Potency was inconclusive: 14.1 µM [activator, single point].
For `Cn1c(O)c(N=Nc2nc(-c3ccccc3)cs2)c2ccccc21`, the Potency was active: 1.12 µM.
With `CCOCCCNC(=O)Cc1ccc(Br)cc1` the Potency was inconclusive: 17.8 µM [activator, single point].
For `Cc1cccc(NC(=O)CCSc2nc(C)cc(C)n2)c1`, the Potency was “inactive”.
With `COc1ccc(Nc2oc(COc3ccc(Cl)cc3)nc2C#N)cc1` the Potency was active: 15.8 µM.
With `CC1=NN(c2ccccc2)C(=O)C1C=Nc1ccccc1O` (stereo not given) the Potency was active: 2 µM.
`Cc1cc(OCC(=O)Nc2ccc(S(=O)(=O)NC3=NCCCCC3)cc2)c(C(C)C)cc1Cl` was tested, and the Potency was inconclusive: 14.1 µM [activator, single point].
With `Cc1ccnc(N2C(=O)c3ccc([N+](=O)[O-])cc3C2=O)c1` the Potency was “inactive”.
With `Cc1ccccc1NC(=O)C1Cc2ccccc2CN1C(=O)c1ccco1` (stereo not given) the Potency was “inactive”.
In the case of `O=[N+]([O-])c1ccc(/C([O-])=C(/C(=S)Nc2ccccc2F)[n+]2ccccc2)cc1`, the Potency is reported as inconclusive: 35.5 µM [inhibitor, single point].
For `CCN(CCCNC(=O)Cn1ncc2c([nH]c3ccc(C)cc32)c1=O)c1ccccc1`, the Potency was “inactive”.
With `FC(F)(F)c1ccccc1CNCc1ccc2c(c1)OCO2` the Potency was “inactive”.
With `O=C(N/N=C/c1ccoc1)c1ccccc1O` the Potency was active: 10 µM.
In the case of `Cc1c(C(=O)N2CCC(n3nccc3NC(=O)C3CC3)CC2)[nH]c2ccc(Cl)cc12`, the Potency is reported as inconclusive: 12.6 µM [activator, partial curve].
For `CC1(C)Cc2c(c(N3CCOCC3)nc3sc(-c4ccc(C(=O)O)o4)c(N)c23)CO1`, the Potency was inconclusive: 0.126 µM [activator, full curve, poor fit].
`C/C(=N\Nc1ccc(C(F)(F)F)cn1)c1ccc(S(=O)(=O)NCc2ccco2)cc1` was tested, and the Potency was inconclusive: 7.08 µM [inhibitor, single point].
In the case of `Cc1nn(-c2ccccc2)c(Cl)c1/C=N\NC(=O)c1cnccn1`, the Potency is reported as “inactive”.
For `CC(=O)c1ccc(NC(=O)CSc2nnc(Cc3cccn3C)n2-c2ccc(F)cc2)cc1`, the Potency was inconclusive: 35.5 µM [inhibitor, single point].
`O=C(Cc1ccccc1)Nc1ccccc1C(=O)N1CCN(c2ccccc2)CC1` was tested, and the Potency was inconclusive: 35.5 µM [inhibitor, single point].
With `CCOC(=O)COn1c(=O)c(=O)n(O)c2ccccc21` the activity change, negative = inhibition was inconclusive: -65.5% [inhibitor].
`FC(F)(F)c1cccc(NC(=S)NNC(=S)Nc2ccc(Cl)cc2)c1` was tested, and the Potency was “inactive”.
In the case of `COc1ccc(S(=O)(=O)Nc2ccc(Cc3ccncc3)cc2)cc1OC`, the Potency is reported as inconclusive: 3.55 µM [activator, partial curve].
For `CCc1c(C2(O)CCCCC2)[nH]c2c(C(=O)OC)cc(Cl)cc12`, the Potency was inconclusive: 22.4 µM [activator, single point].
With `O=C(Nc1cccc(Cl)c1)Nc1nnc(-c2ccccc2)o1` the Potency was “inactive”.
`COc1ccc(CN2CCN(C(c3ccc(F)cc3)c3ccc(F)cc3)CC2)c(OC)c1OC` was tested, and the activity change, negative = inhibition was inactive: 8.18% [at 10 µM].
